Source: paper PMC5247606
These are yes or no findings as the source states them, for the method shown. In cells and extracts the contact can be indirect. Some results given as binding are weak or reduced against the parent protein; the word gives no strength.

Protein sequences, listed by entry. Tags and fused reporters are not part of them.
UniProt P31266: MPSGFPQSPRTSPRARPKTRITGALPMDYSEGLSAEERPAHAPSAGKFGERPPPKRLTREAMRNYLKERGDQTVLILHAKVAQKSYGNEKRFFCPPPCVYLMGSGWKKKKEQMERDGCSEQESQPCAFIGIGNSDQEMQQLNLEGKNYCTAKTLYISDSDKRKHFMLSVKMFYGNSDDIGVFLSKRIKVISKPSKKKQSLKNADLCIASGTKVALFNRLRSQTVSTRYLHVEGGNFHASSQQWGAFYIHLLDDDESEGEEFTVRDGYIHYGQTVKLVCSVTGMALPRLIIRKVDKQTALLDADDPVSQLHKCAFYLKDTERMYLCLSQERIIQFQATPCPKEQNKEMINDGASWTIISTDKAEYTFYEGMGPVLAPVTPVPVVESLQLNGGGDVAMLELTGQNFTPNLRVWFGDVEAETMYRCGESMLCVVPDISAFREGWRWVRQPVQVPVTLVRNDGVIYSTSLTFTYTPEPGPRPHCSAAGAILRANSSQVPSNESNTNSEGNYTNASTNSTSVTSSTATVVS
UniProt Q9R1E0: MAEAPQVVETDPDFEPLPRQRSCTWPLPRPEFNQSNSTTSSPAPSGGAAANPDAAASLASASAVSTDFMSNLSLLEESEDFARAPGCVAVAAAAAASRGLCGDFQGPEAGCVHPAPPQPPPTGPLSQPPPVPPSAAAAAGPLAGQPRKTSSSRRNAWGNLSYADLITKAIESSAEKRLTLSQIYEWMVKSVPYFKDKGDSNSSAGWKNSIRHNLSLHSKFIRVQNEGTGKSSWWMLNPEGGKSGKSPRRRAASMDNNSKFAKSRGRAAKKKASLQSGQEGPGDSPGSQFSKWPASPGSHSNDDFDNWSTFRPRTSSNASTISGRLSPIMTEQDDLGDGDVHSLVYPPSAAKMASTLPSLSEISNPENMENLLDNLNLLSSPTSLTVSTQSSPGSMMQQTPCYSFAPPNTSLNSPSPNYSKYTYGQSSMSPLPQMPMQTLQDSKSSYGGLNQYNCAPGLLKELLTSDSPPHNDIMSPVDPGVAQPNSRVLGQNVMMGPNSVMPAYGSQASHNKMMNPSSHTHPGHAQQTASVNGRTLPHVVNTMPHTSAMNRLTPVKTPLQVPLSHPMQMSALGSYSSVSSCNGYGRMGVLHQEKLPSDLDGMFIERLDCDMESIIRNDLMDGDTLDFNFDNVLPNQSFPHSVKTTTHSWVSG

Molecular target: RBPJκ (mouse (endogenous in primary myoblasts)) (UniProt P31266)
Experiment: co-IP; total or nuclear protein from Rosa^Notch1 primary myoblasts infected with or without AdCre (Notch activation) and AdFoxO1-ADA adenovirus; lysate (500 ug total protein) precleared, 4 ug anti-RBPJκ or rabbit IgG overnight at 4 °C, protein A/G agarose, six washes, western blot

- binding: binds
Substance: Forkhead box protein O1 (FoxO1) (from UniProt Q9R1E0 1-652)
